From patent US10556936B2, “Immunogenic proteins and fragments thereof from allergenic mites” (ALK-ABELLÓ A/S, priority 2016, dated 2020) come the findings set out here.

B1: A007: house dust mite protein; SEQ ID NO: 30 (Der f), 31 (Der p), 306 (Blo t) (protein)
chain: MAKFNYLPVDVQEELRNTANAIVSVGKGILAADESTGTIGKRFADINVENVEQNRQAYRQLLFYSEGIEQYISGVILFDETVYQKDDKGVPFPELLKKKGIIPGIKVDTGVVTLQGTNGESTTQGLDNLTKRCQEYYNQGCRFAKWRCVLKIGQDEPSSLAIVENANVLARYASCCQQARIVPIVEPEILPDGDHNLERCQKVTETVLAAVYKALNDHHVYLEGTLLKPNMVTPGQSCPQKASPQEVAQATVTALQRTVPAAVPGIVFLSGGQSEEEASVNLNAINQYQGKKPWALSFSYGRALQASALRAWQGKPENIGAGQKELLQRAKANVLAHKGQYVAGSIPSLASAKSNFVAQHKY
B2: A003: house dust mite protein; SEQ ID NO: 2 (Der f), 3 (Der p), 305 (Blo t) (protein)
chain: MAIDGKYQMESSEHFEEFVKEMGLDVDMTNVDLSKTSTMEICKDGDVYHIKSETAGIAHEIKFKVGEEFEDDMNGHKFKNVVTMECDNKMVQKKTSADGGKVVNVVREFTDAGCTVKSTYNTVTWTRVYKRM
B3: A001: house dust mite protein; SEQ ID NO: 13 (Der f), 14 (Der p); recombinant test protein (protein)
chain: KKSPDCDIERPIRECLKDGLLRYSSGQKINQFPDTIQDLNRACEELKKSETCARTFIDTCTESSYEKRSLDSLLDGIQRVMKRLCRSQTKKEKLLENVGCANSVVQDTKQCLKNYRMLVFAANKLDNKNKIMRILCCKSRKVAPCIGEAMKAKGTAVCSAKNIDYFKDVHQNIKQEMTAVVCSDFERDQCENVDVPNISESEYKDQNIFNPLRDLYKKVILG
B4: A009: house dust mite protein; SEQ ID NO: 43 (Der f), 44 (Der p), 307 (Blo t) (protein)
chain: VVIKVENLPEQCDYTQCPKWSKDDINVHLVAHTHDDVGWLKTVEQYYYGLKNDIQRAGVQYILDTMIEELIRNKDRRFIYVEIAFFWKWWQEQNEEQRMIVKELVRTGQLEFINGGWSMPDEAATHYNSLIDQSTWGLRQLNDTFGRCGHPKVTWQIDPFGHSKEMANLYAQMGYDALFFARQDYQDRENRMSNRTLEHVWQGSDDLGEIGDIFTGMMFSGYGPIEFNWDITNGPEDAVVDNPESEEYNVPDKIRRFVEKAKYFGQFYATNHFMFPMGTDFQYTDAHTWFKNLDKLINAVNKAGKGVRAFYSTPSCYAHALYEQNRTWTTKTDDFFPYASDEHAYWTGYFTSRPAIKRMERIGNNLLQACKQLDVLADNNGRFEMNLTKMREAMGVMQHHDAVTGTEKQHVAFNYAKMLDSAMLQCRHIINESYKKLLPKSSTSEHEFCPYLNISSCPTTEMGESRIIYLYNPLGHRLINHTVRLPIKNGYYYRIQDQNNQSVPSVLVPIPEFVQKIPGRKSVATKELVFRVPVIEPLGITTMYMYVDKNEQPNSAIEIKGENPDDNDDKSKWLVLTKNLIVEFYSNGTISRISIDKLHQSISISNEFRLYHGAGGTGRHSGAYIFRPNEQKTFPVTNKIKSTFFIDRKYHIVQEVHQQFDSSFVGQIIRMDKYNDNVEFDFVVGPIPVNDQIGKEIIASYKTDLENDETFYTDANGRQMLRRRWNYRPSWKYNVQEPISGNYYPVNSRIAIRDEKQSLQMTIMTDRSQGGSLSPEQINGSIDIMIHRRLLHDDYFGVGEALNEPGVDGHGLVIRGKHLLLLNSIKQSASEHRPLAQQMFMEPIISFTSIESNKQAEKQSNQYIGLNNDLPSNVHLLTLEQWHSKRYLLRLEHFYQSNEDTELSKPVKLSLRHLFKSFEIIAVEELTLGANQPISSLKNRLHYRYNRPLEQRQQQQSSLLLDDPKIEGENFDIHLSPMQIRTFLIDIKRN

One data set in a line: Relative abundance in house dust mite extracts (emPAI, MS/MS). The conditions noted are these: Der f bodies, mild extraction (10 min), sum of all hits = 100%.
In the case of B1, the “relative abundance, Der f bodies, Mild extraction (10 min)” value (“relative abundance, Der f bodies” below) came to 4.5 molar %.
For the molecule B2, the “relative abundance, Der f bodies” value was 19.0 molar %.
As for B3, the “relative abundance, Der f bodies” value is reported as 8.0 molar %.
The same measure, in the same setting: the result for B4 reads 2.3 molar %.

The same data set, now with this note: Der f fecals, mild extraction (10 min), sum of all hits = 100%.
For B1, the “relative abundance, Der f fecals Mild extraction (10 min)” value was 2.4 molar %.
Still for that read-out and setting: the result for B2 reads 11.9 molar %.
In the case of B3, the “relative abundance, Der f fecals Mild extraction (10 min)” value turned out to be 11.6 molar %.
Still for that read-out and setting: the result for B4 reads 0.6 molar %.

Staying with this data set, now noted: Der f full extract, sum of all hits = 100%.
As to B1, the “relative abundance, Der f full extract” value came to 3.5 molar %.
On the same count and under the same terms, the result for B2 reads 13.5 molar %.
In the case of B3, the “relative abundance, Der f full extract” value was found to be 9.2 molar %.
On the same count and under the same terms, the result for B4 reads 0.4 molar %.

The same data set, now with this note: Der p bodies, mild extraction (10 min), sum of all hits = 100%.
With B1, the “relative abundance, Der p bodies Mild extraction (10 min)” value is on record as 1.3 molar %.
Consider B2, for which the “relative abundance, Der p bodies Mild extraction (10 min)” value came to 3.9 molar %.
The same measure, in the same setting: the result for B3 reads 5.0 molar %; that for B4, 1.0 molar %.

The data set is the same for the next values; noted with them: Der p fecals, mild extraction (10 min), sum of all hits = 100%.
Take B1: the “relative abundance, Der p fecals Mild extraction (10 min)” value was 0.3 molar %.
The same measure, in the same setting: the result for B2 reads <0.0 molar %.
Same read-out and setting: the result for B3 reads 0.5 molar %; that for B4, 0.3 molar %.

The data set is the same for the next values; noted with them: Der p full extract, sum of all hits = 100%.
On to B1, for which the “relative abundance, Der p full extract” value came out at 2.1 molar %.
The same measure, in the same setting: the result for B2 reads 17.8 molar %; that for B3, 4.5 molar %.
The same measure, in the same setting: the result for B4 reads 0.6 molar %.
